Laboratory results taken from article PMC7322711.
Results are given in words; binding and its absence hold for the method and conditions named. In cells and extracts the contact can be indirect. Some entries that bind do so weakly or less than the wild type. Where a sequence is shown, tags or fusion partners need not be part of it.

Amino acid sequences for entries named in this document (tags omitted).
UniProt P49792: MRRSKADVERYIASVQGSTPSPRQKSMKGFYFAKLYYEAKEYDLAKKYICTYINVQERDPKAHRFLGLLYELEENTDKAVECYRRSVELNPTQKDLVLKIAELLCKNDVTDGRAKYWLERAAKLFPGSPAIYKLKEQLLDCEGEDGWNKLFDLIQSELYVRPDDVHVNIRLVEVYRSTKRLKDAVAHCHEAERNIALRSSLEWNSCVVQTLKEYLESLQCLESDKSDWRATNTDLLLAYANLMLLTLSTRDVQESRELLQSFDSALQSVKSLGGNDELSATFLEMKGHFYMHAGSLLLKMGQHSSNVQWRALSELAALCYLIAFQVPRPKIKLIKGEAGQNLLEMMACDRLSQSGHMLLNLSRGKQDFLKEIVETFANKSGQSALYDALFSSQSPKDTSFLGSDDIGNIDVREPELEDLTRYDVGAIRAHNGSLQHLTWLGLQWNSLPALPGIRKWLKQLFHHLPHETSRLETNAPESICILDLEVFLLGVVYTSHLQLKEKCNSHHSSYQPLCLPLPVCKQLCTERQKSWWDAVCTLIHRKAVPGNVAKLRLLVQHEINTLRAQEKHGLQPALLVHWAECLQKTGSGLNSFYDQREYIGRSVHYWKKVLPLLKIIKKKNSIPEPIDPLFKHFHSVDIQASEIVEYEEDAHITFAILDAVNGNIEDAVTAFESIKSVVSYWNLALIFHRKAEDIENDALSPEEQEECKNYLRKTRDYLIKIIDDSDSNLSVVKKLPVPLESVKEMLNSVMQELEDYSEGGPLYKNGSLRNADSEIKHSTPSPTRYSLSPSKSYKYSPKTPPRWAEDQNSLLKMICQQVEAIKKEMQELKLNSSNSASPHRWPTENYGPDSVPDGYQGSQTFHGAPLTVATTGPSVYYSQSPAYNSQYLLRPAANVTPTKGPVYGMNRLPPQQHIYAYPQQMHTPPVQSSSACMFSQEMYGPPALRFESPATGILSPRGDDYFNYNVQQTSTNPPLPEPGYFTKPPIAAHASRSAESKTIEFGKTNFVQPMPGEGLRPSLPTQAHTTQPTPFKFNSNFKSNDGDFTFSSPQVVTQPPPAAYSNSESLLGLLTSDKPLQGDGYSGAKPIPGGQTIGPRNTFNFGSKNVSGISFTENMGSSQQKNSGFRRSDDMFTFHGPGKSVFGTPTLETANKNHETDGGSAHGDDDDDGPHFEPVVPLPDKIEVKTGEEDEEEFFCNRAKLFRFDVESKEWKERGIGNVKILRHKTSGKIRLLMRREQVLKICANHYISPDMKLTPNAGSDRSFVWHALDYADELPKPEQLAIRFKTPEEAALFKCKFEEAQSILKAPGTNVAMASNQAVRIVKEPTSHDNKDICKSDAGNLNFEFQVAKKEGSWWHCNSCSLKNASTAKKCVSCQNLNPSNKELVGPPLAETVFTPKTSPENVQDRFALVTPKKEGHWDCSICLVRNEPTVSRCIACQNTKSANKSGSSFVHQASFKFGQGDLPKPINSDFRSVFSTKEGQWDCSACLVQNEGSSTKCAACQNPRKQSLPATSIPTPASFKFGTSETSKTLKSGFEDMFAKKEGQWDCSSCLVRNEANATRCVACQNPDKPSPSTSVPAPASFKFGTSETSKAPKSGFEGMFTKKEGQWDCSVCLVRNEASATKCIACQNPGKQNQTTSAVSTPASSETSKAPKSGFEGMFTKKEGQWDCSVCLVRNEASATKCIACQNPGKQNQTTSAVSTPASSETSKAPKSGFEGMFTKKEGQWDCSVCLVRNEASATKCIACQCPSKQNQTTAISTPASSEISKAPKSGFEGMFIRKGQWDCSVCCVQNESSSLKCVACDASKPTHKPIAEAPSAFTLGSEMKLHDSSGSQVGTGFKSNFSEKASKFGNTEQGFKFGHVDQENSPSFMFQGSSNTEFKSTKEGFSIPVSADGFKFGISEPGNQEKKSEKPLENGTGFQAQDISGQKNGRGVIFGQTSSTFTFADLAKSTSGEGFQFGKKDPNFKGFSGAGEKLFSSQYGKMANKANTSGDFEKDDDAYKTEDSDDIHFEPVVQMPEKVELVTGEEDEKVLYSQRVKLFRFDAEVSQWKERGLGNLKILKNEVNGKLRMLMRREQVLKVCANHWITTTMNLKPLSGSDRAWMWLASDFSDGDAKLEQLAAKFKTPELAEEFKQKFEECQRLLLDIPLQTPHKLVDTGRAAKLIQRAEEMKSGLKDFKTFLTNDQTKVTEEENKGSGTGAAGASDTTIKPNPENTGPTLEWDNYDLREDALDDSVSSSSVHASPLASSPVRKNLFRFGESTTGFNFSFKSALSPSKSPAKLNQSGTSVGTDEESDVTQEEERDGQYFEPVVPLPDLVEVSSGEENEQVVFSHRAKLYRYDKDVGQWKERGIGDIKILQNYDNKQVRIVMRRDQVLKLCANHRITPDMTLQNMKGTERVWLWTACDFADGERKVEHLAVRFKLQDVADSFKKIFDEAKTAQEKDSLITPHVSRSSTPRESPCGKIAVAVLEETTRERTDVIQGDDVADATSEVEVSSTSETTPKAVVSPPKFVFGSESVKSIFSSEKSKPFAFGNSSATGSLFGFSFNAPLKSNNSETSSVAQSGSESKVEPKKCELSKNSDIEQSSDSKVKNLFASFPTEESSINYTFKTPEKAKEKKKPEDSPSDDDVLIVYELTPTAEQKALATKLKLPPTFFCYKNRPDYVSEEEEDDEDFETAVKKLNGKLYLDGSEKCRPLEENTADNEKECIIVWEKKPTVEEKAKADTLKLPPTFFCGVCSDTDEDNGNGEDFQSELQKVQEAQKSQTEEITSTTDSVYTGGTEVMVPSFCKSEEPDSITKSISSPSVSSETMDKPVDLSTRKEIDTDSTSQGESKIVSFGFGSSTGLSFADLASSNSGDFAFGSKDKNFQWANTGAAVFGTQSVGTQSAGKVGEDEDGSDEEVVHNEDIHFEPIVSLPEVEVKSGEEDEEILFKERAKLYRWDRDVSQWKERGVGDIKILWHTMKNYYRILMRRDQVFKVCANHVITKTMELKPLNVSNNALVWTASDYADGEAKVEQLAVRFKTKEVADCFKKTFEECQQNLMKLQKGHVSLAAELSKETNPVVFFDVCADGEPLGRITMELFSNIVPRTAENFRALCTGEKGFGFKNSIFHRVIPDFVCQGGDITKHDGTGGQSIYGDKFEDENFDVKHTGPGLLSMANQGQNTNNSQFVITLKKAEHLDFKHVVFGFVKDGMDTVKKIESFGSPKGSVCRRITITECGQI

Target: NUP358 (human (endogenous in 293T)) (UniProt P49792)
Experiment: co-IP; 293T cells transfected with HA-tagged MxB proteins; NP40 lysate; endogenous NUP358 immunoprecipitated with anti-NUP358 antibody and Protein-G Sepharose, 4 °C, 4 h; associated HA-tagged proteins detected by immunoblot; control rabbit IgG

| Binder | binding |
| --- | --- |
| Hemagglutinin (HA)-tagged wild-type MxB (protein, UniProt P20592-1 1-715) MSKAHKPWPYRRRSQFSSRKYLKKEMNSFQQQPPPFGTVPPQMMFPPNWQGAEKDAAFLAKDFNFLTLNNQPPPGNRSQPRAMGPENNLYSQYEQKVRPCIDLIDSLRALGVEQDLALPAIAVIGDQSSGKSSVLEALSGVALPRGSGIVTRCPLVLKLKKQPCEAWAGRISYRNTELELQDPGQVEKEIHKAQNVMAGNGRGISHELISLEITSPEVPDLTIIDLPGITRVAVDNQPRDIGLQIKALIKKYIQRQQTINLVVVPCNVDIATTEALSMAHEVDPEGDRTIGILTKPDLMDRGTEKSVMNVVRNLTYPLKKGYMIVKCRGQQEITNRLSLAEATKKEITFFQTHPYFRVLLEEGSATVPRLAERLTTELIMHIQKSLPLLEGQIRESHQKATEELRRCGADIPSQEADKMFFLIEKIKMFNQDIEKLVEGEEVVRENETRLYNKIREDFKNWVGILATNTQKVKNIIHEEVEKYEKQYRGKELLGFVNYKTFEIIVHQYIQQLVEPALSMLQKAMEIIQQAFINVAKKHFGEFFNLNQTVQSTIEDIKVKHTAKAENMIQLQFRMEQMVFCQDQIYSVVLKKVREEIFNPLGTPSQNMKLNSHFPSNESSVSSFTEIGIHLNAYFLETSKRLANQIPFIIQYFMLRENGDSLQKAMMQILQEKNRYSWLLQEQSETATKRRILKERIYRLTQARHALCQFSSKEIH | binds |
| HA-tagged non-antiviral short isoform of MxB that lacks the NLS (MxB_(ΔNLS)) (domain or fragment, UniProt P20592-1 26-715) MNSFQQQPPPFGTVPPQMMFPPNWQGAEKDAAFLAKDFNFLTLNNQPPPGNRSQPRAMGPENNLYSQYEQKVRPCIDLIDSLRALGVEQDLALPAIAVIGDQSSGKSSVLEALSGVALPRGSGIVTRCPLVLKLKKQPCEAWAGRISYRNTELELQDPGQVEKEIHKAQNVMAGNGRGISHELISLEITSPEVPDLTIIDLPGITRVAVDNQPRDIGLQIKALIKKYIQRQQTINLVVVPCNVDIATTEALSMAHEVDPEGDRTIGILTKPDLMDRGTEKSVMNVVRNLTYPLKKGYMIVKCRGQQEITNRLSLAEATKKEITFFQTHPYFRVLLEEGSATVPRLAERLTTELIMHIQKSLPLLEGQIRESHQKATEELRRCGADIPSQEADKMFFLIEKIKMFNQDIEKLVEGEEVVRENETRLYNKIREDFKNWVGILATNTQKVKNIIHEEVEKYEKQYRGKELLGFVNYKTFEIIVHQYIQQLVEPALSMLQKAMEIIQQAFINVAKKHFGEFFNLNQTVQSTIEDIKVKHTAKAENMIQLQFRMEQMVFCQDQIYSVVLKKVREEIFNPLGTPSQNMKLNSHFPSNESSVSSFTEIGIHLNAYFLETSKRLANQIPFIIQYFMLRENGDSLQKAMMQILQEKNRYSWLLQEQSETATKRRILKERIYRLTQARHALCQFSSKEIH | binds |
